In the supplement of paper PMC10849652:
Some of the results follow.

Protein sequences, listed by entry. Tags and fused reporters are not part of them. Lines headed by an entry give the natural chain unless they say otherwise; changes in a name come on top.
UniProt Q6XR72: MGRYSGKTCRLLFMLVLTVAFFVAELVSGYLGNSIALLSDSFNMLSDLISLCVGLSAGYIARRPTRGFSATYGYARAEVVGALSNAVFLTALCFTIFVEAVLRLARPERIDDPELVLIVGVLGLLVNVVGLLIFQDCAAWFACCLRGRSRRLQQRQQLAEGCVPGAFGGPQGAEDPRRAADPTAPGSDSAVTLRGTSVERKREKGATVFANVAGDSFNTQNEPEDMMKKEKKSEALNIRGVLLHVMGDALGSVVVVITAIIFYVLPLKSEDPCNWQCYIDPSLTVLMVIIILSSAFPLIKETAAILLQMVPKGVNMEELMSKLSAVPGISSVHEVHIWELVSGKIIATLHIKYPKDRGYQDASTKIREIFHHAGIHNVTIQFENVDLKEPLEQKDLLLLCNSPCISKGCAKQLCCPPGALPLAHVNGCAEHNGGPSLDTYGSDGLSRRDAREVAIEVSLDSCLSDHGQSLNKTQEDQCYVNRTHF
UniProt Q96CQ1: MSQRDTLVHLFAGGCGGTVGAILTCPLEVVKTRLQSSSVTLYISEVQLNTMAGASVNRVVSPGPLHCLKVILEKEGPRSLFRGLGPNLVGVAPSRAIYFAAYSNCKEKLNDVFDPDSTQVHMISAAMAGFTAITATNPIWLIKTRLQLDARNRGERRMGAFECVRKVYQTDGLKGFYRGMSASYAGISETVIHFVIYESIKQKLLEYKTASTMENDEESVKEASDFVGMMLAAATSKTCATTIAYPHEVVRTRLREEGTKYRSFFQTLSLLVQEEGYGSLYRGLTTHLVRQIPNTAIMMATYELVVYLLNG
UniProt O15431: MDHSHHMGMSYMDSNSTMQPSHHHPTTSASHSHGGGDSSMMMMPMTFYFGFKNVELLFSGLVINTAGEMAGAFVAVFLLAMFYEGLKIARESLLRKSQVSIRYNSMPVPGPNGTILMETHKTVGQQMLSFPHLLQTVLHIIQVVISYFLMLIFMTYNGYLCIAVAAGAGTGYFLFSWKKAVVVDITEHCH
UniProt Q6PCB7: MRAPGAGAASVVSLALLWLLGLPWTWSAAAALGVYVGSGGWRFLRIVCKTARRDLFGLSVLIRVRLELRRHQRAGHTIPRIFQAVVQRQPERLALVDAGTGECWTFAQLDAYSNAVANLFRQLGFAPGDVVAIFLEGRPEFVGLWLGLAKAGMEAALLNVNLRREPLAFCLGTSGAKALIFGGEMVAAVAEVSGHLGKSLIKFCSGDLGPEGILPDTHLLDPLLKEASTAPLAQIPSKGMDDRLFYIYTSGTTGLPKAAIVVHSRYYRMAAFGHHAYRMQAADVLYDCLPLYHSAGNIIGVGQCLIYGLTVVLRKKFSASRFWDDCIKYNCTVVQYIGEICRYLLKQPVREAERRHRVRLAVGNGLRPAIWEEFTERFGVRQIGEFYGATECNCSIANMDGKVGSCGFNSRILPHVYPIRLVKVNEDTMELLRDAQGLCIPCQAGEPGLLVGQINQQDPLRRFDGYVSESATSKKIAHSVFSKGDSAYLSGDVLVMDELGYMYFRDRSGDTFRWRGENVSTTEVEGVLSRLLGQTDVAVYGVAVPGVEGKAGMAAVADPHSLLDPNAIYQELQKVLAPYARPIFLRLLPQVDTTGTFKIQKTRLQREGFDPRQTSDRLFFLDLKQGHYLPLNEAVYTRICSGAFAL
UniProt Q8NBW4: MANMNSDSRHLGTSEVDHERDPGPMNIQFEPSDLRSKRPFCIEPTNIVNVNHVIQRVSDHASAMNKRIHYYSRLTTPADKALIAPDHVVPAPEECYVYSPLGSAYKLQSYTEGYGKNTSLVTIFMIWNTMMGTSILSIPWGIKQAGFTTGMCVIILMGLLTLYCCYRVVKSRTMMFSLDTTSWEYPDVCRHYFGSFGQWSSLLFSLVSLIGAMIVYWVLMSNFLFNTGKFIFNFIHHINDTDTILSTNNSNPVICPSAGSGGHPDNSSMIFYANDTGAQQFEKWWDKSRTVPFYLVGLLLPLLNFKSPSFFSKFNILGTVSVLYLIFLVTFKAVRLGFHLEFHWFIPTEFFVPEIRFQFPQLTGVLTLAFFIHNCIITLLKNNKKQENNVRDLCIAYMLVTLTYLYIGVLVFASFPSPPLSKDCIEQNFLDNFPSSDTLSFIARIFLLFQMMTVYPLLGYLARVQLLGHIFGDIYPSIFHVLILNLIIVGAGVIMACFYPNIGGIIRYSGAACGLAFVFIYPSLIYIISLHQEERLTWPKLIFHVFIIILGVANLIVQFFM
UniProt Q96DW6: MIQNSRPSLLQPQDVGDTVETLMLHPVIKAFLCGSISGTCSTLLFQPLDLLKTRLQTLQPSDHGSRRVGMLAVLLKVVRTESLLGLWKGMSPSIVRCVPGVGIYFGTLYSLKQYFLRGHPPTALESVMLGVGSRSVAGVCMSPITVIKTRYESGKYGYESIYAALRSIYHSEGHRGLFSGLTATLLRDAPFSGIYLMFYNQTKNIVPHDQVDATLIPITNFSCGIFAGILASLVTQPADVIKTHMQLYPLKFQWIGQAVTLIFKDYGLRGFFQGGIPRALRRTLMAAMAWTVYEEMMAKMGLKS
UniProt Q5SVS4: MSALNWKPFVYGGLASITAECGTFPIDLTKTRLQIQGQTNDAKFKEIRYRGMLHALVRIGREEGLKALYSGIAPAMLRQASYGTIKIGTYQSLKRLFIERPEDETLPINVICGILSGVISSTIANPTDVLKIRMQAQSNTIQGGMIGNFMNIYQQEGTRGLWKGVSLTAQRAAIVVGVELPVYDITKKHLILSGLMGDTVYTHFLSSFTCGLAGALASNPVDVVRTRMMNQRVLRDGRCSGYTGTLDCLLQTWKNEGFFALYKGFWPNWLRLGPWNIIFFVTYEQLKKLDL
UniProt Q9BZD2: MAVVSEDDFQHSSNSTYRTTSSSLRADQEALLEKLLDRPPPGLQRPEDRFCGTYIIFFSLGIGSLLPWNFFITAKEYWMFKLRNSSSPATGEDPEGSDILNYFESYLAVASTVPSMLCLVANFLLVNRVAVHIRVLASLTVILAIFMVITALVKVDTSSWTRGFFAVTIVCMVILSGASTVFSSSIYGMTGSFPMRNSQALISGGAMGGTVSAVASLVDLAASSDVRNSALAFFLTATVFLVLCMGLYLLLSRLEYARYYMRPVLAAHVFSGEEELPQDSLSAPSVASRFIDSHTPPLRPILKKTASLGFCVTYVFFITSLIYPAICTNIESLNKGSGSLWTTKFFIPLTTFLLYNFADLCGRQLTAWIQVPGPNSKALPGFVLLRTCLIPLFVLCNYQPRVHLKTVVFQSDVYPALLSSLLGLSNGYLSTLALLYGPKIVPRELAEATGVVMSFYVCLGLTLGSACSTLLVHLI
UniProt Q6ZP29: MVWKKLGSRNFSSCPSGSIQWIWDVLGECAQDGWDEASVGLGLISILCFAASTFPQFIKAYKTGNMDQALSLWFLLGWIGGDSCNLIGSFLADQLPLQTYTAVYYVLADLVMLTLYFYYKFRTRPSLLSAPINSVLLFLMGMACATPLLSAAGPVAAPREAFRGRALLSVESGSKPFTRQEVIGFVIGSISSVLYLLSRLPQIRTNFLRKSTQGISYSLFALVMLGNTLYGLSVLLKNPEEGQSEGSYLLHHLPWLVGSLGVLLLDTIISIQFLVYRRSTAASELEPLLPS
UniProt Q9H015: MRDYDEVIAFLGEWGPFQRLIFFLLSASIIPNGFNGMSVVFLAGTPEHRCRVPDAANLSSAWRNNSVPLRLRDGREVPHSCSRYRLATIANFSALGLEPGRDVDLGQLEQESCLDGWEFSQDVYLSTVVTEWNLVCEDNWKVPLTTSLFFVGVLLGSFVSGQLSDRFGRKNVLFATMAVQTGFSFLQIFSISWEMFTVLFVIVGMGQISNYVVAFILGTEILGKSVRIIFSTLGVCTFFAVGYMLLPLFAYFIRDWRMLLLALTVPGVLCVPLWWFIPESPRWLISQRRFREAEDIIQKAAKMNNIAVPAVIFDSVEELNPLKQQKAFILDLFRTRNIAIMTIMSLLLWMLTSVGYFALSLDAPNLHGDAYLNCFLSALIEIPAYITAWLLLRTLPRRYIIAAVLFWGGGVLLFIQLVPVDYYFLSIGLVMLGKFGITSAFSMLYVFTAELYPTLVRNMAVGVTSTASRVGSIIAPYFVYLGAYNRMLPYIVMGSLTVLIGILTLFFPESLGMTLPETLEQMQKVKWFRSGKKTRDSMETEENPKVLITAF
UniProt O76082: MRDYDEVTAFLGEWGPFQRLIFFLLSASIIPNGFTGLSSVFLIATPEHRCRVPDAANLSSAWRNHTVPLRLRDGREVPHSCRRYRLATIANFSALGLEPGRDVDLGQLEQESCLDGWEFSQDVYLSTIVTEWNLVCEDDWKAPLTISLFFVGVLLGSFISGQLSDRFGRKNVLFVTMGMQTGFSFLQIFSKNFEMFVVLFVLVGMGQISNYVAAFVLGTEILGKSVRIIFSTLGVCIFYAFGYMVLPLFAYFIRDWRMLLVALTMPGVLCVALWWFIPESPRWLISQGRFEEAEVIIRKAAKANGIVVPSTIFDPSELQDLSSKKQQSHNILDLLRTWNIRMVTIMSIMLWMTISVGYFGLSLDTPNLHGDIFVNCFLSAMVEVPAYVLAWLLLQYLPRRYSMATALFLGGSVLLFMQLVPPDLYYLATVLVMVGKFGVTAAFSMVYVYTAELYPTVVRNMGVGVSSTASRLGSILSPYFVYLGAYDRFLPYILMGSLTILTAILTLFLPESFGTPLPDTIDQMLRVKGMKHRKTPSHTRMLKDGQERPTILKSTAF
UniProt Q9NY26: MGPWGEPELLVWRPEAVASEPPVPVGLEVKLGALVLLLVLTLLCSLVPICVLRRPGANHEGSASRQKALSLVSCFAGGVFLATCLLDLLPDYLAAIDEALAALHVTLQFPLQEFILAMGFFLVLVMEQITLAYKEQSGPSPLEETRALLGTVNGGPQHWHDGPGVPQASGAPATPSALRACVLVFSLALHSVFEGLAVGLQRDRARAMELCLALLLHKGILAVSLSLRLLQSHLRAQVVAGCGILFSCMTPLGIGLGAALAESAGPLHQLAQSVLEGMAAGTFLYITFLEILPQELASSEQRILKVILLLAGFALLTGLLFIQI
UniProt P14672: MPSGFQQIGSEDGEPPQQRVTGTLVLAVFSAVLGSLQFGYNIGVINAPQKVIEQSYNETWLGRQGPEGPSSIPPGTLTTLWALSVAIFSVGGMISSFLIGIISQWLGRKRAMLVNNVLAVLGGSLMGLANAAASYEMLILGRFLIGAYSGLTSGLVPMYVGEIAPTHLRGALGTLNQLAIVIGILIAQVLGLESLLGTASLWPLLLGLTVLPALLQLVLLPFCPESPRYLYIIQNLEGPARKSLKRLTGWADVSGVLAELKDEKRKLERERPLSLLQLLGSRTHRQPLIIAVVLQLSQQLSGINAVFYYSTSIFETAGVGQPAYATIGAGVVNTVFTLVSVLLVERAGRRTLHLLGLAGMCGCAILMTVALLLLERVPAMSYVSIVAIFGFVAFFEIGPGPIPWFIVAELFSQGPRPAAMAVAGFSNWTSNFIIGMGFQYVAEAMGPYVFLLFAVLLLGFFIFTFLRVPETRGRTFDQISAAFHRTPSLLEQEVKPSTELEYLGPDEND
UniProt Q0GE19: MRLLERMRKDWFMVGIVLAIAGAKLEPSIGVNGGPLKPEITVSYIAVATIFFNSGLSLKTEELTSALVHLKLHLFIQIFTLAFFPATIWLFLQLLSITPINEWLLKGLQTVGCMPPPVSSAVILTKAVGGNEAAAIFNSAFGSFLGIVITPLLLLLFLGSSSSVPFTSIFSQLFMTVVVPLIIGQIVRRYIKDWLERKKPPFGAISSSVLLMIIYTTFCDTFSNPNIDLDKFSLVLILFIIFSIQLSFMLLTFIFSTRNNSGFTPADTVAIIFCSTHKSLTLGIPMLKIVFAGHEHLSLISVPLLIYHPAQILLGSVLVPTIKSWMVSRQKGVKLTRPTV

Key:
Experiment in all cases: log2 fold change, soluble protein after heating vs DMSO (PISA); higher = thermal stabilisation; K562 cells, 10 uM, 30 min; active = over 0.2 and 3.5 SD of the protein, either way, in both replicates (recomputed)
saracatinib = compound: CN1CCN(CCOc2cc(OC3CCOCC3)c3c(Nc4c(Cl)ccc5c4OCO5)ncnc3c2)CC1 [saracatinib]
In short: (§1)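 Soluble protein was quantified by TMTpro 16plex LC-MS/MS after channel sums were equalised. It was obtained as the supernatant after 21,000xg for 90 min from pooled aliquots of K562 cells (2×10^6 cells/mL, 10 μM compound, 30 min) heated for 3 min across 48°C-58°C and extracted in PBS with 0.5% NP-40 at 4°C. Thermal stability values are relative to control samples and come from duplicates. They are given as log2 fold changes.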

sotrastaurin = compound: CN1CCN(c2nc(C3=C(c4c[nH]c5ccccc45)C(=O)NC3=O)c3ccccc3n2)CC1 [sotrastaurin]
In short: as §1

Tubastatin A = compound: CN1CCc2c(c3ccccc3n2Cc2ccc(C(=O)NO)cc2)C1 [Tubastatin A]
In short: as §1

[1] = compound: CNC(=O)C1=CC=CC=C1NC2=NC(=NC=C2Cl)NC3=C(C=C(C=C3)N4CCOCC4)OC
In short: as §1

defactinib = compound: CNC(=O)c1ccc(Nc2ncc(C(F)(F)F)c(NCc3nccnc3N(C)S(C)(=O)=O)n2)cc1 [defactinib]
In short: as §1

rucaparib = compound: CNCc1ccc(-c2[nH]c3cc(F)cc4c3c2CCNC4=O)cc1 [rucaparib]
In short: as §1

[2] = compound: CNc1nc(-c2ccc3c(N)n[nH]c3c2)cc(N2C[C@@H](C(=O)NC3CCCCC3)CC[C@H]2C)n1
In short: as §1

encorafenib = compound: COC(=O)N[C@@H](C)CNc1nccc(-c2cn(C(C)C)nc2-c2cc(Cl)cc(NS(C)(=O)=O)c2F)n1 [encorafenib]
In short: as §1

[3] = compound: COC(=O)[C@H](CCSC)NC(=O)C1=C(C=C(C=C1)NC[C@H](CS)N)C2=CC=CC=C2
In short: as §1

[4] = compound: COC1=CC=C(C=C1)CN2C=CC3=C2C=C(C=C3)C(=O)NO
In short: as §1

filanesib = compound: CON(C)C(=O)N1N=C(c2cc(F)ccc2F)S[C@@]1(CCCN)c1ccccc1 [filanesib]
In short: as §1

zotarolimus = compound: CO[C@H]1C[C@@H]2CC[C@@H](C)[C@@](O)(O2)C(=O)C(=O)N2CCCC[C@H]2C(=O)O[C@H]([C@H](C)C[C@@H]2CC[C@H](n3cnnn3)[C@H](OC)C2)CC(=O)[C@H](C)/C=C(\C)[C@@H](O)[C@@H](OC)C(=O)[C@H](C)C[C@H](C)/C=C/C=C/C=C/1C [zotarolimus]
In short: as §1

idasanutlin = compound: COc1cc(C(=O)O)ccc1NC(=O)[C@@H]1N[C@@H](CC(C)(C)C)[C@](C#N)(c2ccc(Cl)cc2F)[C@H]1c1cccc(Cl)c1F [idasanutlin]
In short: as §1

alisertib = compound: COc1cc(Nc2ncc3c(n2)-c2ccc(Cl)cc2C(c2c(F)cccc2OC)=NC3)ccc1C(=O)O [alisertib]
In short: as §1

[5] = compound: COc1cc2nc(-c3cc(F)ccc3O)nc(N[C@@H]3CNC[C@H]3C(C)(C)O)c2cc1OC
In short: as §1

gefitinib = compound: COc1cc2ncnc(Nc3ccc(F)c(Cl)c3)c2cc1OCCCN1CCOCC1 [gefitinib]
In short: as §1

[6] = compound: COc1cccc2cc(-c3nc([C@H]4CC[C@H](C(=O)O)CC4)n4ncnc(N)c34)[nH]c12
In short: as §1

lapatinib = compound: CS(=O)(=O)CCNCc1ccc(-c2ccc3ncnc(Nc4ccc(OCc5cccc(F)c5)c(Cl)c4)c3c2)o1 [lapatinib]
In short: as §1

pictilisib = compound: CS(=O)(=O)N1CCN(Cc2cc3nc(-c4cccc5[nH]ncc45)nc(N4CCOCC4)c3s2)CC1 [pictilisib]
In short: as §1

alvocidib = compound: CN1CC[C@H](c2c(O)cc(O)c3c(=O)cc(-c4ccccc4Cl)oc23)[C@H](O)C1 [alvocidib]
In short: as §1

SLC30A10 (UniProt Q6XR72)
log2 fold change (saracatinib): inactive: -0.075
log2 fold change (sotrastaurin): inactive: 0.031
log2 fold change (Tubastatin A): inactive: 0.008
log2 fold change [1]: inactive: -0.025
log2 fold change (defactinib): inactive: 0.012
log2 fold change (rucaparib): inactive: -0.073
log2 fold change [2]: inactive: -0.036
log2 fold change (encorafenib): inactive: 0.001
log2 fold change [3]: inactive: -0.011
log2 fold change [4]: inactive: 0.06
log2 fold change (filanesib): inactive: 0.032
log2 fold change (zotarolimus): inactive: -0.02
log2 fold change (idasanutlin): inactive: 0.005
log2 fold change (alisertib): inactive: -0.12
log2 fold change [5]: inactive: 0.003
log2 fold change (gefitinib): inactive: 0.095
log2 fold change [6]: inactive: 0.032
log2 fold change (lapatinib): inactive: 0.001
log2 fold change (pictilisib): inactive: 0.095

SLC25A36 (UniProt Q96CQ1)
log2 fold change (saracatinib): inactive: 0.233
log2 fold change (sotrastaurin): inactive: -0.057
log2 fold change (Tubastatin A): inactive: -0.027
log2 fold change [1]: inactive: 0.013
log2 fold change (defactinib): inactive: 0.011
log2 fold change (rucaparib): inactive: 0.066
log2 fold change [2]: inactive: 0.016
log2 fold change (encorafenib): inactive: -0.055
log2 fold change [3]: inactive: 0.162
log2 fold change [4]: inactive: 0.006
log2 fold change (filanesib): inactive: -0.069
log2 fold change (zotarolimus): inactive: 0.013
log2 fold change (idasanutlin): inactive: -0.064
log2 fold change (alisertib): inactive: -0.03
log2 fold change [5]: inactive: 0.083
log2 fold change (gefitinib): inactive: -0.014
log2 fold change [6]: inactive: 0.001
log2 fold change (lapatinib): inactive: 0.107
log2 fold change (pictilisib): inactive: 0.052

SLC31A1 (UniProt O15431)
log2 fold change (saracatinib): inactive: -0.036
log2 fold change (alvocidib): inactive: 0.01
log2 fold change (Tubastatin A): inactive: 0.031
log2 fold change [1]: inactive: -0.06
log2 fold change (defactinib): inactive: -0.072
log2 fold change (rucaparib): inactive: 0.109
log2 fold change [2]: inactive: 0.057
log2 fold change (encorafenib): inactive: 0.058
log2 fold change [3]: inactive: -0.024
log2 fold change [4]: inactive: -0.004
log2 fold change (zotarolimus): inactive: -0.089
log2 fold change (idasanutlin): inactive: -0.069
log2 fold change (alisertib): inactive: 0.082
log2 fold change [5]: inactive: -0.008
log2 fold change [6]: inactive: 0.013
log2 fold change (lapatinib): inactive: 0.038
log2 fold change (pictilisib): inactive: -0.215

SLC27A1 (UniProt Q6PCB7)
log2 fold change (saracatinib): inactive: -0.007
log2 fold change (sotrastaurin): inactive: 0.013
log2 fold change (Tubastatin A): inactive: -0.252
log2 fold change [1]: inactive: -0.011
log2 fold change (defactinib): inactive: 0.064
log2 fold change [2]: inactive: 0.146
log2 fold change [3]: inactive: -0.183
log2 fold change [4]: inactive: -0.263
log2 fold change (filanesib): inactive: 0.118
log2 fold change (zotarolimus): inactive: 0.064
log2 fold change (idasanutlin): inactive: -0.038
log2 fold change (alisertib): inactive: 0.004
log2 fold change [5]: inactive: 0.069
log2 fold change (gefitinib): inactive: 0.016
log2 fold change [6]: inactive: -0.031
log2 fold change (lapatinib): inactive: 0.014

SLC38A9 (UniProt Q8NBW4)
log2 fold change (saracatinib): inactive: 0.053
log2 fold change (sotrastaurin): inactive: -0.184
log2 fold change (Tubastatin A): inactive: -0.05
log2 fold change [1]: inactive: 0.025
log2 fold change (defactinib): inactive: -0.038
log2 fold change (rucaparib): inactive: -0.048
log2 fold change [2]: inactive: -0.073
log2 fold change (encorafenib): inactive: -0.001
log2 fold change [3]: inactive: 0.001
log2 fold change [4]: inactive: 0.033
log2 fold change (filanesib): inactive: 0.064
log2 fold change (zotarolimus): inactive: -0.012
log2 fold change (idasanutlin): inactive: -0.004
log2 fold change (alisertib): inactive: 0
log2 fold change [5]: inactive: 0.053
log2 fold change (gefitinib): inactive: -0.012
log2 fold change [6]: inactive: 0.121
log2 fold change (lapatinib): inactive: -0.065
log2 fold change (pictilisib): inactive: -0.027

SLC25A38 (UniProt Q96DW6)
log2 fold change (saracatinib): inactive: 0.076
log2 fold change (sotrastaurin): inactive: -0.027
log2 fold change (Tubastatin A): inactive: -0.035
log2 fold change [1]: inactive: -0.015
log2 fold change (defactinib): inactive: 0.046
log2 fold change (rucaparib): inactive: -0.002
log2 fold change [2]: inactive: 0.026
log2 fold change (encorafenib): inactive: 0.016
log2 fold change [3]: inactive: -0.057
log2 fold change [4]: inactive: -0.013
log2 fold change (filanesib): inactive: -0.01
log2 fold change (zotarolimus): inactive: -0.029
log2 fold change (idasanutlin): inactive: -0.069
log2 fold change (alisertib): inactive: -0.049
log2 fold change [5]: inactive: 0.039
log2 fold change (gefitinib): inactive: 0.013
log2 fold change [6]: active: 0.447
log2 fold change (lapatinib): inactive: -0.02
log2 fold change (pictilisib): inactive: 0.04

SLC25A30 (UniProt Q5SVS4)
log2 fold change (saracatinib): inactive: 0.133
log2 fold change (sotrastaurin): inactive: 0.266
log2 fold change (alvocidib): inactive: 0.025
log2 fold change [1]: inactive: 0.021
log2 fold change (defactinib): inactive: -0.048
log2 fold change (rucaparib): inactive: 0.037
log2 fold change [2]: inactive: -0.113
log2 fold change (encorafenib): inactive: 0.092
log2 fold change [3]: inactive: -0.081
log2 fold change [4]: inactive: -0.143
log2 fold change (filanesib): inactive: 0.023
log2 fold change (zotarolimus): inactive: -0.036
log2 fold change (idasanutlin): inactive: 0.093
log2 fold change [5]: inactive: 0.137
log2 fold change (gefitinib): inactive: 0.029
log2 fold change (lapatinib): inactive: -0.114
log2 fold change (pictilisib): inactive: -0.047

SLC29A3 (UniProt Q9BZD2)
log2 fold change (saracatinib): inactive: 0.089
log2 fold change (sotrastaurin): inactive: 0.056
log2 fold change (Tubastatin A): inactive: 0.092
log2 fold change [1]: inactive: 0.105
log2 fold change (defactinib): inactive: 0.013
log2 fold change (rucaparib): inactive: -0.083
log2 fold change [2]: inactive: -0.018
log2 fold change (encorafenib): inactive: -0.05
log2 fold change [3]: inactive: 0.055
log2 fold change [4]: inactive: 0.009
log2 fold change (filanesib): inactive: -0.258
log2 fold change (zotarolimus): inactive: -0.015
log2 fold change (idasanutlin): inactive: -0.113
log2 fold change (alisertib): inactive: 0
log2 fold change [5]: inactive: -0.08
log2 fold change (gefitinib): inactive: -0.08
log2 fold change [6]: inactive: 0.019
log2 fold change (lapatinib): inactive: -0.118

SLC66A1 (UniProt Q6ZP29)
log2 fold change [1]: inactive: 0.316
log2 fold change (rucaparib): inactive: -0.175
log2 fold change (encorafenib): inactive: 0.022
log2 fold change (alisertib): inactive: 0.139
log2 fold change (gefitinib): inactive: 0.124
log2 fold change [6]: inactive: 0.096

SLC22A4 (UniProt Q9H015)
log2 fold change (saracatinib): inactive: -0.08
log2 fold change (alvocidib): inactive: 0.072
log2 fold change (Tubastatin A): inactive: 0.022
log2 fold change (defactinib): inactive: -0.09
log2 fold change [2]: inactive: 0.062
log2 fold change [3]: inactive: 0.129
log2 fold change (zotarolimus): inactive: -0.037
log2 fold change (idasanutlin): inactive: 0.03
log2 fold change [5]: inactive: 0.035
log2 fold change (lapatinib): inactive: -0.059

SLC22A5 isoform 3 (UniProt O76082)
log2 fold change (defactinib): inactive: -0.124
log2 fold change [3]: inactive: -0.057
log2 fold change [4]: inactive: 0.105
log2 fold change [5]: inactive: 0.017
log2 fold change (gefitinib): inactive: 0.073
log2 fold change (lapatinib): inactive: 0.044
log2 fold change (pictilisib): inactive: 0.002

SLC39A1 (UniProt Q9NY26)
log2 fold change [1]: inactive: -0.129
log2 fold change (zotarolimus): inactive: -0.15
log2 fold change (pictilisib): inactive: -0.053

SLC2A4 (UniProt P14672)
log2 fold change (sotrastaurin): inactive: 0.001
log2 fold change (alvocidib): inactive: -0.161
log2 fold change (Tubastatin A): inactive: 0.1
log2 fold change [1]: inactive: -0.087
log2 fold change (rucaparib): inactive: -0.078
log2 fold change (encorafenib): inactive: 0.078
log2 fold change (filanesib): inactive: 0
log2 fold change (zotarolimus): inactive: -0.053
log2 fold change (idasanutlin): inactive: -0.093
log2 fold change (alisertib): inactive: -0.099
log2 fold change [5]: inactive: -0.023
log2 fold change (gefitinib): inactive: 0.001
log2 fold change [6]: inactive: 0.033
log2 fold change (lapatinib): inactive: -0.064
log2 fold change (pictilisib): inactive: 0.096

SLC10A7 isoform 1 (UniProt Q0GE19)
log2 fold change (Tubastatin A): inactive: -0.082
log2 fold change [1]: inactive: 0.07
log2 fold change (rucaparib): inactive: -0.08
log2 fold change (encorafenib): inactive: 0.074
log2 fold change (idasanutlin): inactive: -0.027
log2 fold change (alisertib): inactive: -0.11
log2 fold change [5]: inactive: 0.034
log2 fold change (gefitinib): inactive: -0.325
log2 fold change [6]: inactive: 0.149
log2 fold change (lapatinib): inactive: 0.059
